Data published in publication PMC6321010, “Interaction of the GTPase Elongation Factor Like-1 with the Shwachman-Diamond Syndrome Protein and Its Missense Mutations” (International Journal of Molecular Sciences, 2018).
Results are given in words; binding and its absence hold for the method and conditions named.

B1: yeast SBDS orthologue Sdo1 (recombinant, for SAXS) (protein, UniProt Q07953 1-250)
chain: MPINQPSGQIKLTNVSLVRLKKARKRFEVACYQNKVQDYRKGIEKDLDEVLQIHQVFMNVSKGLVANKEDLQKCFGTTNVDDVIEEIMHKGEIQLSEKERQLMLNKVNNEMLTIVSAKCINPVSKKRYPPTMIHKALQELKFSPVINKPAKLQALEAIKLLVSKQIIPIVRAKMKVKVAISEPSRQPELIEKISKLIASSPGESTKPELDPWTCTGLIDPVNYRDLMTLCDKKGTVQVLDMAVIDNTTHN
B2: yeast EFL1 (recombinant, for SAXS) (enzyme, yeast (S. cerevisiae), UniProt P53893 1-1110, looked up)
chain: MPRVESETYKRLQNDPSCIRNICIVAHVDHGKTSLSDSLLASNGIISQRLAGKIRFLDARPDEQLRGITMESSAISLYFRVLRKQEGSDEPLVSEHLVNLIDSPGHIDFSSEVSAASRLCDGAVVLVDVVEGVCSQTVTVLRQCWTEKLKPILVLNKIDRLITELQLTPQEAYIHLSKVIEQVNSVIGSFFANERQLDDLFWREQLEKNENAEYIEKDDSGIYFNPTDNNVIFASAIDGWGFNIGQLAKFYEQKLGAKRENLQKVLWGDFYMDPKTKKIINNKGLKGRSLKPLFTSLILENIWKIYQNIITSRDSEMVEKIAKTLNIKLLARDLRSKDDKQLLRTIMGQWLPVSTAVLLTVIEKLPSPLESQTDRLNTILVSESDTAAMDPRLLKAMKTCDKEGPVSAYVSKMLSIPREELPVESKRIASSDELMERSRKAREEALNAAKHAGMVENMAMMDLNDNSKNTSDLYKRAKDTVMTPEVGEQTKPKPSRNNDVFCVVSEPSSALDLEFEYEGEDDSDSQDNFGLDFVPTDIDPNDPLSSMFEYEEEDPLLESIKQISEDVNDEVDDIFDEKEECLVAFARIYSGTLRVGQEISVLGPKYDPKCPEEHIETAIITHLYLFMGKELVPLDVCPSGNIVGIRGLAGKVLKSGTLIEKGVQGVNLAGVNFHFTPIVRVAVEPANPVEMSKLVRGLKLLDQADPCVHTYVENTGEHILCTAGELHLERCLKDLTERFAGIEITHSEPAIPYRETFLSASDMNPPQNSQLGRGVHELLLSQYKITFRTFPLSGKVTDFLSQHQNSIKNILKTSTSSMDPVIESTGSSFLDKKSLLVAFEEVINQEEKSRELLSGFKVKLAGFGPSRVGCNILLSQDNLLGSLFEGTPAAFEYSDSIKNGFQLAVSEGPLANEPVQGMCVLVESVHKMSQDEIESIEDPRYQQHIVDLSGRLITSTRDAIHEAFLDWSPRIMWAIYSCDIQTSVDVLGKVYAVILQRHGKIISEEMKEGTPFFQIEAHVPVVEAFGLSEDIRKRTSGAAQPQLVFSGFECIDLDPFWVPTTEEELEELGDTADRENIARKHMNAIRRRKGLFIEEKVVENAEKQRTLKKN
notes: yeast EFL1 (GTPase); the model's rigid parts run over residues 1-1110; source: S. cerevisiae BCY123 (pRS426 backbone, GAL1/10 promoter), purified

What was measured:
[1] = biological target: yeast SBDS orthologue Sdo1 (recombinant, for SAXS) (yeast (S. cerevisiae)) (UniProt Q07953); assay: SAXS coupled to on-line size exclusion chromatography; yeast Sdo1, EFL1 and the complex EFL1•Sdo1 at 10, 6.5 and 8 mg/mL injected onto a Shodex KW-403 column; 50 mM Tris pH 8.0, 10% glycerol, 300 mM NaCl, 5 mM MgCl2; both purified
[2] = biological target: yeast EFL1 (recombinant, for SAXS) (yeast (S. cerevisiae)) (UniProt P53893); assay: as above

Binder | binding [1] | binding [2]
B1 | no binding | 
B2 |  | no binding
